Source: PMC8640933
No constants are given. Whether binding was seen depends on the method and setting. For part of these data: Binding can be weak; no strength is given. Tags and fused reporters may be left off the sequences shown. For part of these data: Binding seen in cells or lysates may run through a third protein. One block for each substance: values may come before it.

How the values were obtained:
[1] = biological target: T1, CENP-T^Cnp20-TAP (Schizosaccharomyces pombe) (UniProt Q9HGK9); assay: co-IP; lysates of S. pombe cells expressing GFP-Ccp1 and CENP-T^Cnp20-TAP, immunoprecipitated with an antibody specific for TAP, Western blot; cells expressing GFP-Ccp1 only as control
T1 sequence: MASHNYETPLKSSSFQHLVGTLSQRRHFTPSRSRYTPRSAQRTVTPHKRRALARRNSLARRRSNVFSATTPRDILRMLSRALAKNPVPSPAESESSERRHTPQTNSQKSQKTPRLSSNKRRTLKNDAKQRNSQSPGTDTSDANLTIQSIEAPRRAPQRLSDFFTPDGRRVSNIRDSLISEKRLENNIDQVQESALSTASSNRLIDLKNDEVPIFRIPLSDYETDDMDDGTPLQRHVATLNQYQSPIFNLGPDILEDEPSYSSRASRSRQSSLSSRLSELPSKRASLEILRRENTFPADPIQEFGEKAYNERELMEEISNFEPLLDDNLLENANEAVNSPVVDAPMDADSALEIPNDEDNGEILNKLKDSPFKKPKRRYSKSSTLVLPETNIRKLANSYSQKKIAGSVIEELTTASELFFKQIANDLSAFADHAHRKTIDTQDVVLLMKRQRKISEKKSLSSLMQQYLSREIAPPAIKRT

[2] = biological target: T2, BD-Cnp20-N (aa 1 to 368) (Schizosaccharomyces pombe) (UniProt Q9HGK9); assay: two-hybrid; in S. cerevisiae; spotted on SD -LT or SD -LTH with 60 mM or 75 mM 3-AT, 30 °C; AD and BD fusions
T2 sequence: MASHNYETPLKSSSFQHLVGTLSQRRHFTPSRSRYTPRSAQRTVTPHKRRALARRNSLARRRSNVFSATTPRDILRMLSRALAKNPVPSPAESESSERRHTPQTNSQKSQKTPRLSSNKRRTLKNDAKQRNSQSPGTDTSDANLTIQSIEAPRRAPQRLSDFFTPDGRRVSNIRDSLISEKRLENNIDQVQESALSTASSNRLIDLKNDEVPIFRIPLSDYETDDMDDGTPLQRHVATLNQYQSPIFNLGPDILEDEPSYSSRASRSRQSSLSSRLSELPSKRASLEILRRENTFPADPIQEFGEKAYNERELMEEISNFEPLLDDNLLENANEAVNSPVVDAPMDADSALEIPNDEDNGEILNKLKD

[3] = biological target: T3, BD-Cnp20 (full-length CENP-T^Cnp20, yeast two-hybrid fusion) (Schizosaccharomyces pombe) (UniProt Q9HGK9); assay: as above
T3 sequence: T1 sequence

[4] = biological target: T4, peptide derived from Cnp20^15-40 (Schizosaccharomyces pombe) (UniProt Q9HGK9); assay: pull-down; in vitro; peptides derived from Cnp20 pull down purified Ccp1; 'nonstringent conditions with much higher protein levels'; both purified
T4 sequence (peptide): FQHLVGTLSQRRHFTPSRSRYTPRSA

[5] = biological target: T5, peptide derived from Cnp20^31-56 (Schizosaccharomyces pombe) (UniProt Q9HGK9); assay: as above
T5 sequence (peptide): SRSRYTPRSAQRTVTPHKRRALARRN

[6] = biological target: T6, CENP-T^Cnp20 aa 1 to 55 (CIM domain, yeast two-hybrid fusion) (Schizosaccharomyces pombe) (UniProt Q9HGK9); assay: two-hybrid; in S. cerevisiae; spotted on SD -LT or SD -LTH with 60 mM or 75 mM 3-AT, 30 °C; AD and BD fusions
T6 sequence: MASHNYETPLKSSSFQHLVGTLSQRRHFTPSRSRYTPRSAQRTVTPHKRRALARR

[7] = biological target: T7, CENP-T^Cnp20 aa 1 to 88 (yeast two-hybrid fusion) (Schizosaccharomyces pombe) (UniProt Q9HGK9); assay: as above
T7 sequence: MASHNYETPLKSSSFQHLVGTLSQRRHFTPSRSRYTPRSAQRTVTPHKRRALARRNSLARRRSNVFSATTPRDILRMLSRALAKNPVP

[8] = biological target: T8, CENP-T^Cnp20 aa 1 to 44 (yeast two-hybrid fusion) (Schizosaccharomyces pombe) (UniProt Q9HGK9); assay: as above
T8 sequence: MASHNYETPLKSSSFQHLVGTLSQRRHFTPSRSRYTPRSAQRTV

[9] = biological target: T9, CENP-T^Cnp20 aa 16 to 55 (yeast two-hybrid fusion) (Schizosaccharomyces pombe) (UniProt Q9HGK9); assay: as above
T9 sequence: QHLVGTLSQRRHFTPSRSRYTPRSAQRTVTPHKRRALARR

[10] = biological target: T10, Cnp20-C (aa 369 to 479) (Schizosaccharomyces pombe) (UniProt Q9HGK9); assay: as above
T10 sequence: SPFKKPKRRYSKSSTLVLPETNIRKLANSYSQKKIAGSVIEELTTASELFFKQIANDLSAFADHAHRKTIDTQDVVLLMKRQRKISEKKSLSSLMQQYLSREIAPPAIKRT

binding [1]: binds
Substance: GFP-Ccp1 (Schizosaccharomyces pombe)

binding [2]: no binding
binding [3]: no binding
Substance: AD-Ccp1-4A (homodimer mutant, yeast two-hybrid fusion) (Schizosaccharomyces pombe)

binding [4]: binds
binding [5]: binds
Substance: purified full-length Ccp1 (Schizosaccharomyces pombe)

binding [6]: binds
binding [2]: binds
binding [7]: binds
binding [8]: binds weakly
binding [9]: binds weakly
binding [3]: binds
binding [10]: no binding
Substance: AD-Ccp1 (yeast two-hybrid fusion) (Schizosaccharomyces pombe)
